The list shows a part of the results.
Tests used:
Experiment in all cases: log2 fold change, soluble protein after heating vs DMSO (PISA); higher = thermal stabilisation; K562 cells, 10 uM, 30 min; active = over 0.2 and 3.5 SD of the protein, either way, in both replicates (recomputed)
[1] = compound: COC1=CC=C(C=C1)CN2C=CC3=C2C=C(C=C3)C(=O)NO
Summary of the method: (§1)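 K562 cells at 2×10^6 cells/mL were exposed to 10 μM compound for 30 min, then aliquots were heated for 3 min across 48°C-58°C, pooled, and extracted in PBS containing 0.5% NP-40 at 4°C. The supernatant after 21,000xg for 90 min was taken as soluble protein and measured by TMTpro 16plex LC-MS/MS with channel sums equalised. Thermal stability is reported relative to control samples, with values from duplicates. Fold changes are given on a log2 scale.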

The chains behind the UniProt entries cited, without tags or fusion partners. Where a name states a change or a piece, a line headed by the entry shows the natural chain unless it says otherwise.
UniProt Q5T0F9: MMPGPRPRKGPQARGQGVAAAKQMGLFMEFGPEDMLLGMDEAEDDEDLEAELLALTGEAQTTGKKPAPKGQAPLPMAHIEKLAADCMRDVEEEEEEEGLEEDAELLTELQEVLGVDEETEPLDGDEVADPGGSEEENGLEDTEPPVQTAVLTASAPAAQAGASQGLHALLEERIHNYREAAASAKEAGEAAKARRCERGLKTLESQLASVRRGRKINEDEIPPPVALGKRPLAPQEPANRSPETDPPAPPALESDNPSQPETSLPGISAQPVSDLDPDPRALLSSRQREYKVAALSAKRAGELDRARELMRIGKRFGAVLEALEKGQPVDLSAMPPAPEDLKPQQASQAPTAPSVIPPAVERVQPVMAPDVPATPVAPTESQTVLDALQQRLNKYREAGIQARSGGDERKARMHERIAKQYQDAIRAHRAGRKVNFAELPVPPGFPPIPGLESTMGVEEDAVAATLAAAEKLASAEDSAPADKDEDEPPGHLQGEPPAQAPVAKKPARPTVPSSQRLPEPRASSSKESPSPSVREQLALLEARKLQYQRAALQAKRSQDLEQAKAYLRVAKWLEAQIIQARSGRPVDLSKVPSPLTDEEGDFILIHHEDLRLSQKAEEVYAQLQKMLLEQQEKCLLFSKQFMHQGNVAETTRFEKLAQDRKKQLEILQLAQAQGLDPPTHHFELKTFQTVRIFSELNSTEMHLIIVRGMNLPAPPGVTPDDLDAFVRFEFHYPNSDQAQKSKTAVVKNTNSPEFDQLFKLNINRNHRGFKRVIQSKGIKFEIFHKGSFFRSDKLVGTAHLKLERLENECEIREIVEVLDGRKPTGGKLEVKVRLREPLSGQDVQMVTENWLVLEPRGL
UniProt O60826, whole entry, looked up: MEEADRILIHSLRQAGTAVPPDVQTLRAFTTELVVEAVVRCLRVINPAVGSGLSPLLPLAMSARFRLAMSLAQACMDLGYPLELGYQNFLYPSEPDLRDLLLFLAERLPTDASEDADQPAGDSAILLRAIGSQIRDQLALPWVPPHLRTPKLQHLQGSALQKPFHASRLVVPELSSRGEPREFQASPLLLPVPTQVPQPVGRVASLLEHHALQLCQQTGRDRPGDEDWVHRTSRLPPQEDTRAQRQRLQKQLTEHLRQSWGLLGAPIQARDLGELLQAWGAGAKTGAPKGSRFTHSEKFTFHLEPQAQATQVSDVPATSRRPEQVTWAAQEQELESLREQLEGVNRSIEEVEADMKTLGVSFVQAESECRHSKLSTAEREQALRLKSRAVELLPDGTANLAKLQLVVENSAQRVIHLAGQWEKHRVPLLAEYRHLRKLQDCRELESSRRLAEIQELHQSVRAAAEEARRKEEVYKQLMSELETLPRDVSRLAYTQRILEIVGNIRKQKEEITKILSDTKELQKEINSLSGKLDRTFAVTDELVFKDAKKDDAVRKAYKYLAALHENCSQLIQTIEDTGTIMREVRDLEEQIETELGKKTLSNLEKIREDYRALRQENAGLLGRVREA
UniProt Q4VC31: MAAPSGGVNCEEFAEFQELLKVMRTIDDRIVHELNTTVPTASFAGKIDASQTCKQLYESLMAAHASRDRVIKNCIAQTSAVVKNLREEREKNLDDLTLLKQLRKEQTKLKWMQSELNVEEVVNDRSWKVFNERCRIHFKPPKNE
UniProt P55212: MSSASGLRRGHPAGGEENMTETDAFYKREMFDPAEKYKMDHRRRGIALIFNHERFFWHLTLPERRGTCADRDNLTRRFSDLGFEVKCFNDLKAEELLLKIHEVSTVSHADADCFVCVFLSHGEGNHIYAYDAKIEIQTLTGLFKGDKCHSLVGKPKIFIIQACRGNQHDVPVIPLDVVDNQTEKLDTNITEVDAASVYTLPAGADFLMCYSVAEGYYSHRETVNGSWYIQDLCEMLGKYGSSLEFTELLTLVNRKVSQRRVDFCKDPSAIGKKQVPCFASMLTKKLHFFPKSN
UniProt Q9ULG6: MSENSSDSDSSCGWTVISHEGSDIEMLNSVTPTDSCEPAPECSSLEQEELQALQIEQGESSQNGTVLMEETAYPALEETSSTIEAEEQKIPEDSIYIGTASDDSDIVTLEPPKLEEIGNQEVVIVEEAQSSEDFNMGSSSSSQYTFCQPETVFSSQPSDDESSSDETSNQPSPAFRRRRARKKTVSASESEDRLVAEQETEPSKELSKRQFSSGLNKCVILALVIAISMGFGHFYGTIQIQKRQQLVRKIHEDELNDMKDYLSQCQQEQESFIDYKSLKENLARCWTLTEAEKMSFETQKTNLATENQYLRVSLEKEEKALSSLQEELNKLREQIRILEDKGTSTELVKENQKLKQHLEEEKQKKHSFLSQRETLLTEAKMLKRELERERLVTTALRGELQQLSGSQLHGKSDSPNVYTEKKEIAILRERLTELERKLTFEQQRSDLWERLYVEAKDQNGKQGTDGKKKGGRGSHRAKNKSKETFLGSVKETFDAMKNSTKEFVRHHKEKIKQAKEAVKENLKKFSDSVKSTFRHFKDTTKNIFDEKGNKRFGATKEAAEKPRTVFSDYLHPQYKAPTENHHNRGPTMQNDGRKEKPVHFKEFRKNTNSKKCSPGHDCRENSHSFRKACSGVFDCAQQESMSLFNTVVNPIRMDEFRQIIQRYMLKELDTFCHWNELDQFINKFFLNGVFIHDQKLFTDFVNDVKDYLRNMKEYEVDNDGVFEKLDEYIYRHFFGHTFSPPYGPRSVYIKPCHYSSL
UniProt Q13042, whole entry, looked up: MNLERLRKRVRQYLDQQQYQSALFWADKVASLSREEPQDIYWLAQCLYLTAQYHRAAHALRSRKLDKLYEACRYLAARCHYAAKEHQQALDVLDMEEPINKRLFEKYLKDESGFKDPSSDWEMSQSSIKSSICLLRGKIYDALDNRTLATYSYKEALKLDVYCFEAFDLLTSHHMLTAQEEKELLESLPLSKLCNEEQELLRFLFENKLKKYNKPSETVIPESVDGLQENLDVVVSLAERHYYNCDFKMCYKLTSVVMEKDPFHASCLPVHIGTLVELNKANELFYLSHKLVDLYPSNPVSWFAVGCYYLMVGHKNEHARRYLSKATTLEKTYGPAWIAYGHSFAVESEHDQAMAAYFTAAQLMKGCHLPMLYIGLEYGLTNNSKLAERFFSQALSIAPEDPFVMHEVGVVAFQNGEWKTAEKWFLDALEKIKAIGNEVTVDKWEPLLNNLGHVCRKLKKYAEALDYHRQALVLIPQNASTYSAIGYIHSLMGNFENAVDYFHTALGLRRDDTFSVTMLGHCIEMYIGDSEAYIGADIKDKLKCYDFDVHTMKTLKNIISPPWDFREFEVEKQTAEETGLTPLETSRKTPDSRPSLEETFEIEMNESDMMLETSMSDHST
UniProt P60953, whole entry, looked up: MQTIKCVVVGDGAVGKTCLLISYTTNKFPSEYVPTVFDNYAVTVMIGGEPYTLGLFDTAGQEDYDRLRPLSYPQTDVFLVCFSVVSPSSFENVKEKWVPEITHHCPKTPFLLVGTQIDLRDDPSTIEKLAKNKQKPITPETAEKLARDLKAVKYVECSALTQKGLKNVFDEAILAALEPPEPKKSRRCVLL
UniProt P20810: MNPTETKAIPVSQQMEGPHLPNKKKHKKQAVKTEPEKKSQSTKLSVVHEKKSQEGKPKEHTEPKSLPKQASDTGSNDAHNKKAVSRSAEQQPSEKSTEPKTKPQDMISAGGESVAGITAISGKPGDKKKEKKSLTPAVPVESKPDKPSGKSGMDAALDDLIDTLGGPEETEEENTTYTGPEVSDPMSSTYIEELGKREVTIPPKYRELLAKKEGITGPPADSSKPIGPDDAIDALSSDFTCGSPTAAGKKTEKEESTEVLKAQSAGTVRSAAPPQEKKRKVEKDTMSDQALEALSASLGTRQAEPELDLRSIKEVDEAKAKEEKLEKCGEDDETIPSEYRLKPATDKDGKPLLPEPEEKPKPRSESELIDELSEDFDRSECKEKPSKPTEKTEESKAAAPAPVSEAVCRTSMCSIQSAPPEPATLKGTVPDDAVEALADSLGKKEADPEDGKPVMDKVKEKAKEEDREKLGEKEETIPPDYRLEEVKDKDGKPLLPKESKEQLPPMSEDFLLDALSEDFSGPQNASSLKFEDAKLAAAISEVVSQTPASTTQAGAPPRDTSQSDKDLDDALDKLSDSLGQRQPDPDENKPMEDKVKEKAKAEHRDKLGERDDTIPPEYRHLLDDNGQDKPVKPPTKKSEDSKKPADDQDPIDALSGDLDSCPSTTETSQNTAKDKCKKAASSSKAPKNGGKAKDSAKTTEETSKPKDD
UniProt P49589: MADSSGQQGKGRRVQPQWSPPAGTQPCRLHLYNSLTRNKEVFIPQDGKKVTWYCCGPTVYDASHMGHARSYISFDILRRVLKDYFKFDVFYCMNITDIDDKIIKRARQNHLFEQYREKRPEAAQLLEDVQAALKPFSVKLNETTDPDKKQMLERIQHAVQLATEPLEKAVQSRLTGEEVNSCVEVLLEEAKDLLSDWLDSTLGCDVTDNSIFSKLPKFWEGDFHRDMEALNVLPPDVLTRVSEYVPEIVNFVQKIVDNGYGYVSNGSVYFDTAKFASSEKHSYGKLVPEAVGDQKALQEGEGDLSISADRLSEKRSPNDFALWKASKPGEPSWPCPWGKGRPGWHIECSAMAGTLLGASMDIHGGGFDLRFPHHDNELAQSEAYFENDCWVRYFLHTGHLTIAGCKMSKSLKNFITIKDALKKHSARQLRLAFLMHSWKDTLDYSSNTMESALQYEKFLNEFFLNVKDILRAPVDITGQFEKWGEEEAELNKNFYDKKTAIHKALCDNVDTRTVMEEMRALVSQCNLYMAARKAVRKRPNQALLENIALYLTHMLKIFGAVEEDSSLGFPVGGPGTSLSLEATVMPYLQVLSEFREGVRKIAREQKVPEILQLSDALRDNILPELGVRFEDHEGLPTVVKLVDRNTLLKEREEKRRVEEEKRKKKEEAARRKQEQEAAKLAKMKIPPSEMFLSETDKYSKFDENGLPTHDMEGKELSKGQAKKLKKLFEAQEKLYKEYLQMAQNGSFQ
UniProt Q6PII3: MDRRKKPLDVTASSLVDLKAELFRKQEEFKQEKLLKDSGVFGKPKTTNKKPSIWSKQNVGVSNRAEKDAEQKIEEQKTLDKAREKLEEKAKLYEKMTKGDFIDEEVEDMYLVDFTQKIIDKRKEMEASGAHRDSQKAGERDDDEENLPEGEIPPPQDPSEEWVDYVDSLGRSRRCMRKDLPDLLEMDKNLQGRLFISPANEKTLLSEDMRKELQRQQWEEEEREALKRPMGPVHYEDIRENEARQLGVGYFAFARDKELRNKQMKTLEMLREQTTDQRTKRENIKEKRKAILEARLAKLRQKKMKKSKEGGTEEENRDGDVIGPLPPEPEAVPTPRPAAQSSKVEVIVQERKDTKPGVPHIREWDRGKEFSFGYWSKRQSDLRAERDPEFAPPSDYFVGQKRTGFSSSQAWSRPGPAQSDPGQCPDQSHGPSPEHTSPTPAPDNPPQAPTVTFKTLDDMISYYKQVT
UniProt Q13951, whole entry, looked up: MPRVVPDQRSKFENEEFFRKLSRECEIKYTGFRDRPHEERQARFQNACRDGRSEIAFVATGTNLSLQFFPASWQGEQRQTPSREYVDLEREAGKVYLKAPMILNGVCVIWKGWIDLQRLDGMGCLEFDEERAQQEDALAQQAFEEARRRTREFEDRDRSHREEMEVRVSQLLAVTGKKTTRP
UniProt P40227, whole entry, looked up: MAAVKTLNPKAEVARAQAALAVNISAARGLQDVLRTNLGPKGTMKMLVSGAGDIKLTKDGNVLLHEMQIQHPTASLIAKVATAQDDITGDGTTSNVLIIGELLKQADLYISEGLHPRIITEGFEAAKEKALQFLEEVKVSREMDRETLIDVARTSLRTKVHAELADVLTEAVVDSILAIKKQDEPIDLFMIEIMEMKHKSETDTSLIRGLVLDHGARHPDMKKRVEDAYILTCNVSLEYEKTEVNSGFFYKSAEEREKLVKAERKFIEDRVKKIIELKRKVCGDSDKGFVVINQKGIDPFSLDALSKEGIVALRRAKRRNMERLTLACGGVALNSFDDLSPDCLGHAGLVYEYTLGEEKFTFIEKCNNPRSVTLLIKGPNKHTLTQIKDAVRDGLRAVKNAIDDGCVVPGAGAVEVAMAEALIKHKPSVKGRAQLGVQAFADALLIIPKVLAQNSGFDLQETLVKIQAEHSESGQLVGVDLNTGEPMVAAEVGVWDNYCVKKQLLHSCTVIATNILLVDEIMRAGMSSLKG
UniProt Q9BRT8: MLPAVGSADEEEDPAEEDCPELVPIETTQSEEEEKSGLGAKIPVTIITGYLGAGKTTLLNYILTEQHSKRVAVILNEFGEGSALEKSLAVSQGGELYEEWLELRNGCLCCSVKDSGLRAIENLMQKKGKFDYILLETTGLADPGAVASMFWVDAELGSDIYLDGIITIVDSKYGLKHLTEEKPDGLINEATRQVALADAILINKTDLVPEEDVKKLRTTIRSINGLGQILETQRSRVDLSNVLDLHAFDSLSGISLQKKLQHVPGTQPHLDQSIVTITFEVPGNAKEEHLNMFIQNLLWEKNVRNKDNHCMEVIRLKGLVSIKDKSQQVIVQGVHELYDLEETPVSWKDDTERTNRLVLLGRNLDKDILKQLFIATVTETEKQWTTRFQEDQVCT

filanesib = compound: CON(C)C(=O)N1N=C(c2cc(F)ccc2F)S[C@@]1(CCCN)c1ccccc1 [filanesib]
Summary of the method: as §1

zotarolimus = compound: CO[C@H]1C[C@@H]2CC[C@@H](C)[C@@](O)(O2)C(=O)C(=O)N2CCCC[C@H]2C(=O)O[C@H]([C@H](C)C[C@@H]2CC[C@H](n3cnnn3)[C@H](OC)C2)CC(=O)[C@H](C)/C=C(\C)[C@@H](O)[C@@H](OC)C(=O)[C@H](C)C[C@H](C)/C=C/C=C/C=C/1C [zotarolimus]
Summary of the method: as §1

idasanutlin = compound: COc1cc(C(=O)O)ccc1NC(=O)[C@@H]1N[C@@H](CC(C)(C)C)[C@](C#N)(c2ccc(Cl)cc2F)[C@H]1c1cccc(Cl)c1F [idasanutlin]
Summary of the method: as §1

alisertib = compound: COc1cc(Nc2ncc3c(n2)-c2ccc(Cl)cc2C(c2c(F)cccc2OC)=NC3)ccc1C(=O)O [alisertib]
Summary of the method: as §1

[2] = compound: COc1cc2nc(-c3cc(F)ccc3O)nc(N[C@@H]3CNC[C@H]3C(C)(C)O)c2cc1OC
Summary of the method: as §1

gefitinib = compound: COc1cc2ncnc(Nc3ccc(F)c(Cl)c3)c2cc1OCCCN1CCOCC1 [gefitinib]
Summary of the method: as §1

[3] = compound: COc1cccc2cc(-c3nc([C@H]4CC[C@H](C(=O)O)CC4)n4ncnc(N)c34)[nH]c12
Summary of the method: as §1

lapatinib = compound: CS(=O)(=O)CCNCc1ccc(-c2ccc3ncnc(Nc4ccc(OCc5cccc(F)c5)c(Cl)c4)c3c2)o1 [lapatinib]
Summary of the method: as §1

pictilisib = compound: CS(=O)(=O)N1CCN(Cc2cc3nc(-c4cccc5[nH]ncc45)nc(N4CCOCC4)c3s2)CC1 [pictilisib]
Summary of the method: as §1

[4] = compound: CS(=O)(=O)c1ccc(-c2cnc(N)c(C(=O)Nc3ccccc3)n2)cc1
Summary of the method: as §1

crizotinib = compound: C[C@@H](Oc1cc(-c2cnn(C3CCNCC3)c2)cnc1N)c1c(Cl)ccc(F)c1Cl [crizotinib]
Summary of the method: as §1

[5] = compound: C[C@@H]1COCCN1C2=NC(=NC(=C2)C3(CC3)S(=O)(=O)C)C4=C5C=CNC5=CC=C4
Summary of the method: as §1

[6] = compound: C[C@H](C1=CC=C(C=C1)C(=O)NC2=C3C=CNC3=NC=C2)N
Summary of the method: as §1

duvelisib = compound: C[C@H](Nc1ncnc2nc[nH]c12)c1cc2cccc(Cl)c2c(=O)n1-c1ccccc1 [duvelisib]
Summary of the method: as §1

gandotinib = compound: Cc1cc(Nc2cc(CN3CCOCC3)c3nc(C)c(Cc4ccc(Cl)cc4F)n3n2)n[nH]1 [gandotinib]
Summary of the method: as §1

tozasertib = compound: Cc1cc(Nc2cc(N3CCN(C)CC3)nc(Sc3ccc(NC(=O)C4CC4)cc3)n2)n[nH]1 [tozasertib]
Summary of the method: as §1

[7] = compound: Cc1cc(SCc2sc(-c3ccc(C(F)(F)F)cc3)nc2C)ccc1OCC(=O)O
Summary of the method: as §1

doramapimod = compound: Cc1ccc(-n2nc(C(C)(C)C)cc2NC(=O)Nc2ccc(OCCN3CCOCC3)c3ccccc23)cc1 [doramapimod]
Summary of the method: as §1

ispinesib = compound: Cc1ccc(C(=O)N(CCCN)[C@@H](c2nc3cc(Cl)ccc3c(=O)n2Cc2ccccc2)C(C)C)cc1 [ispinesib]
Summary of the method: as §1

Measured: log2 fold change

CC2D1B isoform 2 (UniProt Q5T0F9)
inactive: [1] 0.016 | filanesib 0.027 | zotarolimus 0.001 | idasanutlin -0.036 | alisertib 0.031 | [2] 0.074 | gefitinib -0.01 | [3] 0.024 | lapatinib -0.007 | pictilisib 0.059 | [4] 0.042 | crizotinib 0.008 | [5] -0.039 | [6] 0.012 | duvelisib 0.004 | gandotinib -0.049 | tozasertib 0.03 | [7] -0.026 | doramapimod -0.001 | ispinesib 0.004

CCDC22 (UniProt O60826)
inactive: [1] 0.021 | filanesib 0.004 | zotarolimus 0.091 | idasanutlin -0.006 | alisertib -0.014 | [2] 0.01 | gefitinib -0.011 | [3] -0.029 | lapatinib 0.092 | pictilisib -0.171 | [4] 0.009 | crizotinib -0.116 | [5] -0.038 | [6] 0.133 | duvelisib 0.013 | gandotinib -0.077 | tozasertib 0.052 | [7] 0.105 | doramapimod 0.023 | ispinesib -0.048

CCDC58 (UniProt Q4VC31)
inactive: [1] -0.043 | filanesib 0.011 | zotarolimus -0.02 | idasanutlin -0.003 | alisertib -0.07 | [2] 0.005 | gefitinib -0.013 | [3] 0.054 | lapatinib -0.007 | pictilisib 0.068 | [4] -0.03 | crizotinib 0.037 | [5] -0.009 | [6] -0.06 | duvelisib 0 | gandotinib 0.019 | tozasertib -0.028 | [7] -0.001 | doramapimod -0.031 | ispinesib 0.01

CBL (UniProt P22681)
inactive: [1] 0.108 | filanesib -0.051 | zotarolimus -0.01 | idasanutlin 0.007 | alisertib -0.015 | [2] 0.019 | gefitinib 0 | [3] 0.009 | lapatinib -0.004 | pictilisib 0.018 | [4] -0.015 | crizotinib 0.002 | [5] 0.053 | [6] -0.064 | duvelisib 0.138 | gandotinib -0.009 | tozasertib 0.024 | [7] -0.032 | doramapimod -0.055 | ispinesib 0.113

CASP6 (UniProt P55212)
inactive: [1] -0.003 | filanesib -0.005 | zotarolimus 0.045 | idasanutlin -0.053 | alisertib -0.098 | [2] -0.009 | gefitinib -0.021 | [3] 0.001 | lapatinib 0.008 | pictilisib 0.047 | [4] -0.029 | crizotinib 0.07 | [5] 0.009 | [6] -0.064 | duvelisib 0.02 | gandotinib -0.006 | tozasertib -0.006 | [7] 0.013 | doramapimod -0.032 | ispinesib 0.045

CCDC6 (UniProt Q16204)
inactive: [1] -0.017 | filanesib 0.012 | zotarolimus 0.011 | idasanutlin 0.002 | alisertib -0.048 | [2] 0.044 | gefitinib 0.007 | [3] 0.03 | lapatinib -0.026 | pictilisib 0.066 | [4] -0.003 | crizotinib 0.058 | [5] 0.056 | [6] -0.04 | duvelisib 0.045 | gandotinib -0.014 | tozasertib -0.003 | [7] -0.043 | doramapimod -0.007 | ispinesib -0.032

CCPG1 isoform 5 (UniProt Q9ULG6)
inactive: [1] -0.063 | filanesib 0.172 | zotarolimus 0.014 | idasanutlin 0.104 | alisertib -0.074 | [2] -0.028 | gefitinib -0.066 | [3] -0.199 | lapatinib 0.127 | pictilisib -0.017 | [4] 0.003 | crizotinib -0.072 | [5] -0.271 | [6] 0.249 | duvelisib -0.091 | gandotinib 0.026 | tozasertib 0.057 | [7] 0.029 | doramapimod 0.161 | ispinesib -0.012

CDC16 (UniProt Q13042)
inactive: [1] -0.074 | filanesib 0.05 | zotarolimus -0.001 | idasanutlin -0.015 | alisertib -0.069 | [2] -0.034 | gefitinib -0.012 | [3] -0.019 | lapatinib 0.041 | pictilisib 0.015 | [4] -0.017 | crizotinib 0.016 | [5] -0.021 | [6] 0.034 | duvelisib 0.023 | gandotinib 0.016 | tozasertib 0.064 | [7] 0.026 | doramapimod 0.033 | ispinesib 0.007

CCDC88A (UniProt Q3V6T2)
inactive: [1] 0.057 | filanesib 0.167 | zotarolimus -0.107 | idasanutlin 0.057 | alisertib -0.028 | [2] -0.038 | gefitinib -0.044 | [3] 0.068 | lapatinib 0.055 | pictilisib 0.067 | [4] 0.063 | crizotinib -0.106 | [5] 0.002 | [6] 0.063 | duvelisib 0.051 | gandotinib 0.021 | tozasertib 0.031 | [7] -0.001 | doramapimod 0.04 | ispinesib -0.282

CDC42 isoform 1 (UniProt P60953)
inactive: [1] -0.061 | filanesib 0.021 | zotarolimus -0.037 | idasanutlin 0.022 | alisertib -0.001 | [2] -0.034 | gefitinib 0.01 | [3] 0.071 | lapatinib -0.063 | pictilisib 0.042 | [4] 0.028 | crizotinib 0.151 | [5] -0.022 | [6] -0.096 | duvelisib -0.021 | gandotinib -0.029 | tozasertib -0.014 | [7] -0.073 | doramapimod -0.03 | ispinesib 0.039

CAST isoform 6 (UniProt P20810)
inactive: [1] -0.038 | filanesib 0.02 | zotarolimus -0.038 | idasanutlin 0.014 | alisertib -0.042 | [2] 0.024 | gefitinib -0.012 | [3] 0.048 | lapatinib -0.044 | pictilisib 0.03 | [4] 0.019 | crizotinib -0.004 | [5] 0.039 | [6] 0.024 | duvelisib 0.013 | gandotinib 0.043 | tozasertib -0.036 | [7] -0.081 | doramapimod -0.008 | ispinesib -0.025

CARS isoform 3 (UniProt P49589)
inactive: [1] 0.001 | filanesib -0.042 | zotarolimus -0.015 | idasanutlin -0.032 | alisertib -0.044 | [2] 0 | gefitinib -0.004 | [3] 0.027 | lapatinib 0.012 | pictilisib -0.029 | [4] 0.007 | crizotinib -0.021 | [5] 0.02 | [6] -0.021 | duvelisib -0.014 | gandotinib -0.104 | tozasertib -0.019 | [7] -0.021 | doramapimod -0.011 | ispinesib -0.029

CCDC174 (UniProt Q6PII3)
inactive: [1] -0.07 | filanesib 0.04 | zotarolimus -0.049 | idasanutlin 0.057 | alisertib -0.045 | [2] 0.045 | gefitinib 0.045 | [3] 0.007 | lapatinib -0.073 | pictilisib 0.001 | [4] 0.003 | crizotinib 0.058 | [5] 0.014 | [6] -0.071 | duvelisib 0.025 | gandotinib 0.022 | tozasertib 0.012 | [7] -0.037 | doramapimod 0 | ispinesib 0.047

Quoted at random: 2 records from the list, in no set order.
CARS isoform 3 (UniProt P49589)
inactive: [1] 0.001 | filanesib -0.042 | zotarolimus -0.015 | idasanutlin -0.032 | alisertib -0.044 | [2] 0 | gefitinib -0.004 | [3] 0.027 | lapatinib 0.012 | pictilisib -0.029 | [4] 0.007 | crizotinib -0.021 | [5] 0.02 | [6] -0.021 | duvelisib -0.014 | gandotinib -0.104 | tozasertib -0.019 | [7] -0.021 | doramapimod -0.011 | ispinesib -0.029

CCDC174 (UniProt Q6PII3)
inactive: [1] -0.07 | filanesib 0.04 | zotarolimus -0.049 | idasanutlin 0.057 | alisertib -0.045 | [2] 0.045 | gefitinib 0.045 | [3] 0.007 | lapatinib -0.073 | pictilisib 0.001 | [4] 0.003 | crizotinib 0.058 | [5] 0.014 | [6] -0.071 | duvelisib 0.025 | gandotinib 0.022 | tozasertib 0.012 | [7] -0.037 | doramapimod 0 | ispinesib 0.047

More records follow:

CBFB isoform 2 (UniProt Q13951)
inactive: [1] -0.036 | filanesib -0.056 | zotarolimus 0.084 | idasanutlin -0.044 | alisertib -0.075 | [2] 0.094 | gefitinib 0.019 | [3] 0.004 | lapatinib -0.043 | pictilisib -0.141 | [4] 0 | crizotinib 0.061 | [5] -0.069 | [6] -0.091 | duvelisib 0.047 | gandotinib 0.089 | tozasertib 0.092 | [7] 0.065 | doramapimod 0.002 | ispinesib 0.002

CCT6A (UniProt P40227)
inactive: [1] 0.004 | filanesib -0.025 | zotarolimus 0.02 | idasanutlin -0.005 | alisertib -0.031 | [2] -0.006 | gefitinib -0.013 | [3] 0.034 | lapatinib -0.002 | pictilisib -0.033 | [4] -0.02 | crizotinib 0 | [5] 0.017 | [6] -0.009 | duvelisib -0.006 | gandotinib -0.011 | tozasertib -0.005 | [7] -0.003 | doramapimod -0.005 | ispinesib -0.004

CBWD1 (UniProt Q9BRT8)
inactive: [1] 0.027 | filanesib -0.048 | zotarolimus 0.019 | idasanutlin 0.081 | alisertib -0.017 | [2] 0.062 | gefitinib -0.071 | [3] -0.001 | lapatinib 0.029 | pictilisib -0.083 | [4] 0.079 | crizotinib -0.07 | [5] 0.044 | [6] 0.178 | duvelisib -0.002 | gandotinib 0.231 | tozasertib 0.107 | [7] 0.041 | doramapimod 0.013 | ispinesib -0.211

Source: the supplement of paper PMC10849652
